This is one part of the list.

Amino acid sequences for entries named in this document (tags omitted).
UniProt Q0JBA9, entry or part of it: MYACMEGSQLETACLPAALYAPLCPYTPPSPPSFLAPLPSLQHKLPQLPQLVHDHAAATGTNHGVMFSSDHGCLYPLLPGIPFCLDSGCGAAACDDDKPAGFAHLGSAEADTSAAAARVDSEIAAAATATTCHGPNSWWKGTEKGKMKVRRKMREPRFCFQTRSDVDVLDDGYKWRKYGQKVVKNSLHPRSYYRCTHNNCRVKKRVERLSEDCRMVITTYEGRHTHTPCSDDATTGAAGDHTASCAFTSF

For the experiment, the target named is OsWRKY34 (Oryza sativa, UniProt Q0JBA9 1-250). As to the kind of experiment: protein-binding microarray (RPBM); PBS, 2% BSA, 51.3 ng/ul salmon testes DNA, 50 uM zinc acetate, 200 nM TF, 25 C, 1 h; high values mean tight binding. Particulars: protein: recombinant; tags: N-terminal polyhistidine and DsRed monomer fusion (pET32a); label: CyDye5-dUTP incorporated in the synthesized complementary strand; 3' TTTTT single-stranded linker to array surface; dsDNA, one strand shown. Put shortly: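 A custom Agilent array was converted to double-stranded form by primer extension with Cy5-dUTP and blocked with 2% BSA. Protein at 200 nM in PBS with 2% BSA, salmon testes DNA and 50 µM zinc acetate was applied for 1 h at 25 °C, followed by washing. The proteins were polyhistidine–DsRed N-terminal fusions of transcription factors, expressed in E. coli BL21-CodonPlus and Ni–NTA-purified. The binding signal is per-feature fluorescence intensity (arbitrary units) from an Axon 4000B scanner.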
For “GTCCTTAACGACGTCGTTGACTTTTCACATAACATTATACCGGAGTCACCTAGTGCAG”, the binding signal is 17300 fluorescence intensity (a.u.). Next, “CTTTATACGTGACTTGTTTTTTTAATTTTTTATATAATTTCGGAGTCACCTAGTGCAG”: 9980 fluorescence intensity (a.u.); “AACGTTTGACCGTCCGCCTTATATGAAATTTTTTATAATTCGGAGTCACCTAGTGCAG”: 8230 fluorescence intensity (a.u.); “CATTTTCACTCCCTACTCAACAAACTGGACTGTTTAGCTACGGAGTCACCTAGTGCAG”: 8150 fluorescence intensity (a.u.). The figure for “ACGAATTTGAACAAACTCTCTATCTAGATTCATTGACCTTCGGAGTCACCTAGTGCAG” is 8450 fluorescence intensity (a.u.); for “GTTGGGGTGGTTGGTTTGGGGATCCCCTGTTGTACCCTGCCGGAGTCACCTAGTGCAG” it is 10700 fluorescence intensity (a.u.); for “ACCGGCTACCTCGTCCATCCGTCGTCCTCCGCGACCGATCCGGAGTCACCTAGTGCAG” it is 11100 fluorescence intensity (a.u.). As to “CAGCCTTGCGCTTGCACCTCTCAAAATTTTTCTATTCTTTCGGAGTCACCTAGTGCAG”, the binding signal is 8540 fluorescence intensity (a.u.). Next, “AGGCCAATGCAGGATCCTGCCCAACCTGTTAGCTGTCTCCCGGAGTCACCTAGTGCAG”: 8280 fluorescence intensity (a.u.); “TGCTGTGCCCGCGCTGTCCATCCCGATCCTGTCGTTCAGGCGGAGTCACCTAGTGCAG”: 10700 fluorescence intensity (a.u.). Next, “AGGGTGTCAAAGTATACTTTTTTTTCTTTCATCTCTAAACCGGAGTCACCTAGTGCAG”: 10500 fluorescence intensity (a.u.); “CATTTCTGTTCCATTTCTCATCCATCGCGCGTCGTCTCCACGGAGTCACCTAGTGCAG”: 14300 fluorescence intensity (a.u.); “AGTCCTGCATCTTCACAAATCCCACACAACCAAGCCGCCGCGGAGTCACCTAGTGCAG”: 8780 fluorescence intensity (a.u.). Regarding “TTTTATTTTTTCATTGGATTTTCGCGGGCGGGCCATTGCCCGGAGTCACCTAGTGCAG”, the binding signal was 14600 fluorescence intensity (a.u.). Next, “TCTCGCGCGCGCTCACTTGCTCACGGCCCCGCCGACCTCACGGAGTCACCTAGTGCAG”: 8360 fluorescence intensity (a.u.). The figure for “CTTATACATTGGGTTGAGGGTTTTTTTGGTTGAGTTCGGCCGGAGTCACCTAGTGCAG” is 9220 fluorescence intensity (a.u.); for “GCAAAGTTGTTTCCACCTGATTTCCCTGCAATTGGATTCTCGGAGTCACCTAGTGCAG” it is 8360 fluorescence intensity (a.u.). The figure for “CTTTCGGCTTCGGTGCTGCTGCTGGCGCCTCATTGCCCGTCGGAGTCACCTAGTGCAG” is 8390 fluorescence intensity (a.u.); for “CCCTCGTCCTGCCGAAGCTTTAGTCAACATTTCCTTGGATCGGAGTCACCTAGTGCAG” it is 10300 fluorescence intensity (a.u.); for “CACCGTTGACAATATTTACCTATACTTATATCGATTTGTGCGGAGTCACCTAGTGCAG” it is 9120 fluorescence intensity (a.u.). As for “GAAGACAGTGACATCATGTTCATCCACGATTACCACCTCTCGGAGTCACCTAGTGCAG”, the binding signal is 8220 fluorescence intensity (a.u.). The figure for “TCTATACTCTACTTCTAATATTCCTTGTTTTTAATTCCGACGGAGTCACCTAGTGCAG” is 8950 fluorescence intensity (a.u.); for “GGGTGGGGCCCGCATGTCAACCTCACAACGCTCTCCGAGGCGGAGTCACCTAGTGCAG” it is 9420 fluorescence intensity (a.u.); for “CGGTGTTAGGGGTCGTTTGTCCGGTATGTATAGTTTATGGCGGAGTCACCTAGTGCAG” it is 8350 fluorescence intensity (a.u.). Consider “AGGAGTTGTTTTTCATTTCGTATAACATATGTCCCTTTTTCGGAGTCACCTAGTGCAG”, for which the binding signal was 10500 fluorescence intensity (a.u.). In the case of “AAAGAAGGAAATCATCACACTCTTATGCGCTGTTTAGTTCCGGAGTCACCTAGTGCAG”, the binding signal was 9430 fluorescence intensity (a.u.). The figure for “TTTTCCGTCACATCGTTCCAATTTCAACCAAACTTCCAATCGGAGTCACCTAGTGCAG” is 11400 fluorescence intensity (a.u.); for “TTCCTATAAAATTCCTTCGTTCCAAGAAAGCCGTTGACCACGGAGTCACCTAGTGCAG” it is 11900 fluorescence intensity (a.u.); for “CCATACGCCGGCACGCGTTCCCAACACCGCAAGCCATTCTCGGAGTCACCTAGTGCAG” it is 8540 fluorescence intensity (a.u.). As to “AGACTGCCTATGTTTTGATTTCCATTTGTCTTAACGTTTCCGGAGTCACCTAGTGCAG”, the binding signal was 8190 fluorescence intensity (a.u.). The figure for “ACTGGTCATTTCCTCTATTAAAGTACTATCCATTTTAGCCCGGAGTCACCTAGTGCAG” is 8220 fluorescence intensity (a.u.); for “ACCACTCAAAAACTCTCTCTCTCTACCCAAACAGGTTTTGCGGAGTCACCTAGTGCAG” it is 8600 fluorescence intensity (a.u.).

On to “TTTTTCCGCTGCTGCTGCTTTTGTTTCGGTGTGAGGACTACGGAGTCACCTAGTGCAG”, for which the binding signal was 8720 fluorescence intensity (a.u.).

On to “AAAACTGGCCCGGTCTATCATGACGCACAGCCTGCTCAGCCGGAGTCACCTAGTGCAG”, for which the binding signal was 8090 fluorescence intensity (a.u.). The figure for “ATCTTTTCGCTTATGCTTATACTTATCAGCCACAATTTTACGGAGTCACCTAGTGCAG” is 9720 fluorescence intensity (a.u.); for “CGCCAATCCACCGCATCATCGGCTTCCCTCCGGCTCGAGCCGGAGTCACCTAGTGCAG” it is 12800 fluorescence intensity (a.u.). The figure for “CAATAATCTTGTCTTTAGAGTGTATGCATTTGGTTTGTATCGGAGTCACCTAGTGCAG” is 8630 fluorescence intensity (a.u.); for “TACTCGGTACTCCTTACCCATTAGTGCTATGTAAAGCTGCCGGAGTCACCTAGTGCAG” it is 9460 fluorescence intensity (a.u.); for “GCTCGTGTCACTTTCTCGGCAACTTTACCTGCTCTTTTTACGGAGTCACCTAGTGCAG” it is 14600 fluorescence intensity (a.u.).

On to “TCCTCCTTTGACCCAGTTAACTTCGCTCCCTTGTTTCCTTCGGAGTCACCTAGTGCAG”, for which the binding signal is 9690 fluorescence intensity (a.u.).

Turning to “ATATTTACTGAATACCTGGTAATCCATCTCTTATACATTCCGGAGTCACCTAGTGCAG”, the binding signal was 8930 fluorescence intensity (a.u.).

On to “TTTACATATCATGTACAGGTAGCGTCGTATTTTTATTTTGCGGAGTCACCTAGTGCAG”, for which the binding signal was 8120 fluorescence intensity (a.u.).

Values taken from paper PMC7819943, “Rice protein-binding microarrays: a tool to detect cis-acting elements near promoter regions in rice”.
